From PubChem BioAssay AID1487 (National Center for Advancing Translational Sciences (NCATS), 2009)
The other results are listed elsewhere or left out. Shown are side measurements of this screen, not its main read-out; they come without a call. Most of these compounds were active or inconclusive in the main read-out, so they are no random draw. Potencies come from curve fits of mixed quality, noted in brackets.

Experiment: qHTS Assay for Modulators of Lamin A Splicing
Settings: HeLa LMNA splicing GFP/RFP minigene ratio, 48 h
Summary of the method: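 S3 HeLa stable clones carrying a lamin A-EGFP splicing minigene plus DsRed2 were seeded at 600 cells/well in Opti-MEM with 2% FBS, pin-dosed and incubated 48 h at 37°C. Acumen cytometry (488 nm) gave the GFP/RFP total-intensity ratio.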

[1] = measured here: GFP splicing reporter channel
[2] = measured here: RFP viability control channel

Compound | AC50 [1] | AC50 [2]
COc1ccc(OC)c(CNC(=O)CCCc2cn(C)c3ccccc23)c1 | 14.1 µM [rising, partial curve, poor fit] | 14.1 µM [rising, partial curve, poor fit]
Cn1c(CSc2nc3ccccc3s2)nc2ccccc21 |  | 15.8 µM [rising, partial curve]
O=C(NCc1ccccn1)c1cc(S(=O)(=O)N2CCN(c3ccccc3)CC2)ccc1Cl | 11.2 µM [rising, single point] | 20 µM [rising, single point]
CCCCCCC(=O)N(O)C1CC(=O)N(c2ccc(Br)cc2)C1=O (centres undefined) |  | 12.6 µM [rising, partial curve]
O=C(CCc1ccc(S(=O)(=O)N2CCOCC2)cc1)N1CCN(Cc2ccc3c(c2)OCO3)CC1 |  | 10 µM [rising, single point]
CC(C)Cc1cc(C(=O)Nc2sc3c(c2C#N)CCCC3)no1 |  | 0.562 µM [rising, single point]
Cc1c(Cl)cccc1NC(=S)NCC1COc2ccccc2O1 (centres undefined) | 12.6 µM [falling, partial curve] | 
COCC(C)n1c(C)cc(C(=O)COC(=O)c2c(C)nn(-c3ccccc3)c2C)c1C (centres undefined) | 20 µM [rising, single point] | 35.5 µM [rising, single point]
CCCNc1nc2c(c(=O)[nH]c(=O)n2C)n1Cc1cccc(Br)c1 | 35.5 µM [rising, single point] | 35.5 µM [rising, single point]
COCCn1nnnc1C(c1cccs1)N1CCN(c2nc3ccccc3s2)CC1 (centres undefined) |  | 35.5 µM [rising, single point]
COCCNC(=S)N(c1ccccc1)C(C)C |  | 0.891 µM [rising, full curve]
Cc1ccc(C(=O)NNC(=O)c2cccs2)cc1 | 0.398 µM [rising, full curve, poor fit] | 
CCOC(=O)Cn1c(CN(Cc2ccccc2)Cc2ccccc2)nc2c1c(=O)n(C)c(=O)n2C | 17.8 µM [rising, single point] | 15.8 µM [rising, single point]
CC1(C)COC(/C=C/c2ccc([N+](=O)[O-])cc2)=N1 | 7.94 µM [falling, single point] | 5.62 µM [rising, single point]
COc1c(C)cc(C(=O)C2CCCN(Cc3ccc(Oc4ncccn4)cc3)C2)cc1C (centres undefined) | 0.282 µM [falling, full curve, poor fit] | 
O=C(c1ccc(Cl)c(Cl)c1)N1CCC(=O)N(C(COCc2ccccc2)Cc2ccccc2)CC1 (centres undefined) |  | 35.5 µM [rising, single point]
Cc1cc(C)nc(-n2nc(C)c3c(C(F)(F)F)cc(=O)[nH]c32)n1 | 6.31 µM [rising, single point] | 6.31 µM [rising, single point]
Cc1ccc(Nc2nnc(SCC(=O)Nc3cccc(S(=O)(=O)NC4=NCCCCC4)c3)s2)cc1 |  | 31.6 µM [rising, single point]
Cc1cccc(-c2noc(CNC(=O)Nc3ccc(F)cc3)n2)c1 | 0.282 µM [falling, partial curve] | 0.00891 µM [falling, full curve, poor fit]
CC(Oc1ccc(Cl)cc1)c1ccnn1S(=O)(=O)c1ccc(Cl)cc1 (centres undefined) |  | 35.5 µM [rising, single point]
Cc1c(C(N)=O)cc([N+](=O)[O-])cc1[N+](=O)[O-] | 15.8 µM [falling, single point] | 0.158 µM [rising, full curve, poor fit]
CS(=O)(=O)c1ccc2nc(NC(=O)Nc3cccc(Cl)c3)sc2c1 | 11.2 µM [falling, partial curve] | 11.2 µM [falling, partial curve]
CCOc1ccccc1CNc1ncnc2c1nc1n2CCCC1 | 35.5 µM [falling, single point] | 11.2 µM [rising, partial curve]
O=C(C1CCCN(S(=O)(=O)c2cccc3nonc23)C1)N1CCN(c2cccc(Cl)c2)CC1 (centres undefined) |  | 11.2 µM [rising, partial curve]
O=C(Cc1cccs1)Nc1nc2ccccc2s1 | 17.8 µM [rising, partial curve, poor fit] | 15.8 µM [rising, partial curve]
Cc1cccc(CNc2nc(-c3cccc(NS(C)(=O)=O)c3)nc3ccccc23)c1 | 35.5 µM [falling, single point] | 35.5 µM [falling, single point]

Compound | AC50 [1] | AC50 [2]
O=C(/C=C/c1ccc(Cl)cc1)N1CCN(c2ccc([N+](=O)[O-])c(N3CCOCC3)c2)CC1 |  | 31.6 µM [rising, single point]
COc1cccc(C(=O)/C=C/c2ccc(N3CCCCC3)c([N+](=O)[O-])c2)c1 | 35.5 µM [falling, single point] | 35.5 µM [falling, single point]
Cc1cc(C)c2c(c1)cc(C)c1nnc(SCC(=O)Nc3ccc(S(=O)(=O)N4CCCCC4)cc3)n12 | 11.2 µM [rising, single point] | 17.8 µM [rising, partial curve]
CC(C)c1nc2cc3ccccc3cc2[nH]1 | 11.2 µM [rising, partial curve] | 14.1 µM [rising, single point]
CCOC(=O)c1cn(Cc2ccccc2)nn1 | 3.98 µM [falling, partial curve, poor fit] | 4.47 µM [falling, partial curve, poor fit]
CCOc1ccc(CONS(=O)(=O)c2ccc(NC(C)=O)cc2)cc1Cl | 1.78 µM [rising, full curve] | 12.6 µM [rising, partial curve]
COc1ccccc1/C=C/C(=O)Nc1cccc(C(C)=O)c1 | 0.00562 µM [falling, full curve, poor fit] | 
CCCCNC(=S)N/N=C1\CCCCc2ccccc21 |  | 35.5 µM [rising, single point]
CCN(CC)S(=O)(=O)c1ccc(N/N=C/c2ccc(OC)c(OC)c2OC)nc1 | 3.98 µM [falling, full curve, poor fit] | 3.98 µM [falling, full curve, poor fit]
COc1ccc(C2SCC(=O)N2c2nc3ccccc3s2)cc1 (centres undefined) |  | 0.562 µM [falling, partial curve, poor fit]
C=CCN1CC2(c3ccccc3)CN(CC=C)CC(c3ccccc3)(C1)C2=O | 0.0224 µM [rising, full curve, poor fit] | 0.0224 µM [rising, full curve, poor fit]
Cc1ccc2[nH]c3c(c2c1)CCC3=O | 2 µM [falling, full curve] | 1.26 µM [falling, full curve]
COC(=O)C1=C(Nc2ccc(C)cc2)C=C(C)C(C(=O)OC)C1c1ccc(F)cc1 (centres undefined) | 35.5 µM [falling, single point] | 35.5 µM [falling, single point]
CCOc1ccc(OC(=O)c2cccnc2)cc1 |  | 17.8 µM [rising, single point]
CC(=O)Nc1ccc(Nc2c([N+](=O)[O-])cc(S(C)(=O)=O)cc2[N+](=O)[O-])cc1 |  | 22.4 µM [rising, partial curve]
CCc1c(C(=O)N2CCN(c3ccccc3F)CC2)[nH]c(C)c1C(C)=O |  | 14.1 µM [rising, single point]
COC(=O)c1sc2cccc(F)c2c1S(=O)(=O)N1CCN(c2ccccc2OC)CC1 |  | 11.2 µM [rising, partial curve, poor fit]
COc1ccc(-c2cc3nc(-c4ccccc4)cc(N4CCC5(CC4)OCCO5)n3n2)cc1 | 35.5 µM [rising, single point] | 
CC1CCN(C(=O)CN2CCSc3ccccc32)CC1 | 4.47 µM [rising, single point] | 
COc1ccc(S(=O)(=O)N2CCN(C(=O)c3cccs3)CC2)cc1OC |  | 20 µM [rising, single point]
CCC(=O)N1CCCc2cc(S(=O)(=O)N3CCC(C(=O)Nc4ccc(F)c(F)c4)CC3)ccc21 | 15.8 µM [falling, single point] | 
O=C(CN1c2ccccc2S(=O)(=O)c2ccccc21)Nc1ccccc1Cl | 0.0355 µM [falling, full curve, poor fit] | 0.0282 µM [falling, full curve, poor fit]
O=C(Cn1cnc2onc(-c3ccc(F)cc3)c2c1=O)Nc1ccc(F)c(Cl)c1 | 35.5 µM [falling, partial curve, poor fit] | 35.5 µM [falling, partial curve, poor fit]
C[C@@]12C(=O)OC(=O)[C@@]1(C)C1CCC2O1 | 2.82 µM [falling, full curve] | 2.82 µM [falling, full curve]
COc1cccc2sc(N(CCCN(C)C)C(=O)C(c3ccccc3)c3ccccc3)nc12 | 4.47 µM [falling, partial curve] | 3.16 µM [falling, partial curve]
CN(C)/C=N/c1sc2c(c1C#N)CCCCC2 | 7.08 µM [rising, partial curve, poor fit] | 10 µM [rising, partial curve]

Exported in markdown: part of the list above

| Compound | AC50 [1] | AC50 [2] |
| --- | --- | --- |
| Cc1ccc(Nc2nnc(SCC(=O)Nc3cccc(S(=O)(=O)NC4=NCCCCC4)c3)s2)cc1 |  | 31.6 µM [rising, single point] |
| Cc1cccc(-c2noc(CNC(=O)Nc3ccc(F)cc3)n2)c1 | 0.282 µM [falling, partial curve] | 0.00891 µM [falling, full curve, poor fit] |
| CC(Oc1ccc(Cl)cc1)c1ccnn1S(=O)(=O)c1ccc(Cl)cc1 (centres undefined) |  | 35.5 µM [rising, single point] |
